PubChem BioAssay AID493246, Drosophila RNAi Screening Center, 2011
The screen tested about 21,000 reagents; shown is an unselected part of those with a known target gene and a result. Of all reagents, 429 (2%) got an active call. 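Values are raw and not normalised between plates; calls rest on per-plate z-scores that were not deposited.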 A plus sign joins genes that one reagent is predicted to hit. Not stated in the record: the amount of reagent, the time to read-out.

- Aim: 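Genome-wide search for dsRNAs that reduce cell number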 (primary screen)
- Cells: Drosophila Kc and S2R+ cells
- Reagent: long dsRNA against Drosophila genes
- Read-out: 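Raw, unnormalised count of remaining cells in each well; per-plate z-scores of cell number underlie the calls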
- Direction: Kc cell number and S2R+ cell number: higher = more cells remaining
- Hit rule: 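Active when the per-plate z-score of cell number is 3 or more in the direction of fewer cells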

With Cks85A [DRSC16562], how do the results read?
Kc cell number, rep 1: 1.67e6; Kc cell number, rep 2: 1.89e6; S2R+ cell number, rep 1: 1.23e6; S2R+ cell number, rep 2: 1.30e6; call: inactive

With tbrd-1 [DRSC14601], how do the results read?
Kc cell number, rep 1: 1.46e6; Kc cell number, rep 2: 1.49e6; S2R+ cell number, rep 1: 9.58e5; S2R+ cell number, rep 2: 1.01e6; call: inactive

What did the screen give for Or85f [DRSC16769]?
Kc cell number, rep 1: 1.60e6; Kc cell number, rep 2: 1.58e6; S2R+ cell number, rep 1: 1.23e6; S2R+ cell number, rep 2: 1.31e6; call: inactive

With Surf6 [DRSC15588], how do the results read?
Kc cell number, rep 1: 1.64e6; Kc cell number, rep 2: 1.74e6; S2R+ cell number, rep 1: 1.08e6; S2R+ cell number, rep 2: 1.19e6; call: inactive

With zip [DRSC04725], what does the deposit list?
Kc cell number, rep 1: 1.22e6; Kc cell number, rep 2: 1.22e6; S2R+ cell number, rep 1: 1.07e6; S2R+ cell number, rep 2: 1.17e6; call: inactive

With CG13984 [DRSC02316], what was measured?
Kc cell number, rep 1: 1.67e6; Kc cell number, rep 2: 1.46e6; S2R+ cell number, rep 1: 1.14e6; S2R+ cell number, rep 2: 1.34e6; call: inactive

For CG6015 [DRSC15948], how do the results read?
Kc cell number, rep 1: 1.33e6; Kc cell number, rep 2: 1.51e6; S2R+ cell number, rep 1: 7.37e5; S2R+ cell number, rep 2: 8.30e5; call: inactive

Which result is listed for CG11251 [DRSC09825]?
Kc cell number, rep 1: 1.46e6; Kc cell number, rep 2: 1.68e6; S2R+ cell number, rep 1: 1.45e6; S2R+ cell number, rep 2: 1.59e6; call: inactive

With CG9018 [DRSC08618], what was measured?
Kc cell number, rep 1: 1.29e6; Kc cell number, rep 2: 1.30e6; S2R+ cell number, rep 1: 1.03e6; S2R+ cell number, rep 2: 1.18e6; call: inactive

With sotv + CG10731 [DRSC05930], how do the results read?
Kc cell number, rep 1: 1.53e6; Kc cell number, rep 2: 1.58e6; S2R+ cell number, rep 1: 1.16e6; S2R+ cell number, rep 2: 1.17e6; call: inactive

How did the screen score sotv + CG10731 [DRSC05997]?
Kc cell number, rep 1: 1.49e6; Kc cell number, rep 2: 1.53e6; S2R+ cell number, rep 1: 1.16e6; S2R+ cell number, rep 2: 1.20e6; call: inactive

Which result is listed for CG2533 [DRSC19855]?
Kc cell number, rep 1: 1.69e6; Kc cell number, rep 2: 1.79e6; S2R+ cell number, rep 1: 1.09e6; S2R+ cell number, rep 2: 1.21e6; call: inactive

What did the screen give for CG31199 [DRSC15284]?
Kc cell number, rep 1: 1.49e6; Kc cell number, rep 2: 1.58e6; S2R+ cell number, rep 1: 1.15e6; S2R+ cell number, rep 2: 1.26e6; call: inactive

Which result is listed for CG14034 [DRSC02359]?
Kc cell number, rep 1: 1.57e6; Kc cell number, rep 2: 1.53e6; S2R+ cell number, rep 1: 1.20e6; S2R+ cell number, rep 2: 1.38e6; call: inactive

How did the screen score CG10237 [DRSC02029]?
Kc cell number, rep 1: 1.47e6; Kc cell number, rep 2: 1.59e6; S2R+ cell number, rep 1: 1.19e6; S2R+ cell number, rep 2: 1.29e6; call: inactive

With CG12486 (retired record) [DRSC09888], what was measured?
Kc cell number, rep 1: 1.20e6; Kc cell number, rep 2: 1.42e6; S2R+ cell number, rep 1: 1.27e6; S2R+ cell number, rep 2: 1.39e6; call: inactive

How did the screen score CG13482 [DRSC10024]?
Kc cell number, rep 1: 1.55e6; Kc cell number, rep 2: 1.61e6; S2R+ cell number, rep 1: 1.33e6; S2R+ cell number, rep 2: 1.31e6; call: inactive

What did the screen give for CG30110 [DRSC05686]?
Kc cell number, rep 1: 5.53e5; S2R+ cell number, rep 1: 8.20e5; call: inactive

With btz [DRSC14566], what was measured?
Kc cell number, rep 1: 5.23e5; S2R+ cell number, rep 1: 7.68e5; call: inactive

For ine [DRSC00822], how do the results read?
Kc cell number, rep 1: 1.11e6; Kc cell number, rep 2: 1.32e6; S2R+ cell number, rep 1: 6.64e5; S2R+ cell number, rep 2: 6.63e5; call: inactive

How did the screen score Hs2st [DRSC03348]?
Kc cell number, rep 1: 1.42e6; Kc cell number, rep 2: 1.49e6; S2R+ cell number, rep 1: 1.30e6; S2R+ cell number, rep 2: 1.33e6; call: inactive

With CG4744 [DRSC06887], how do the results read?
Kc cell number, rep 1: 1.35e6; Kc cell number, rep 2: 1.45e6; S2R+ cell number, rep 1: 1.10e6; S2R+ cell number, rep 2: 1.09e6; call: inactive

For Usp2 [DRSC20590], what was measured?
Kc cell number, rep 1: 1.38e6; Kc cell number, rep 2: 1.54e6; S2R+ cell number, rep 1: 1.06e6; S2R+ cell number, rep 2: 1.10e6; call: inactive

Which result is listed for Usp2 [DRSC20632]?
Kc cell number, rep 1: 1.43e6; Kc cell number, rep 2: 1.52e6; S2R+ cell number, rep 1: 1.05e6; S2R+ cell number, rep 2: 1.21e6; call: inactive

What did the screen give for Usp2 [DRSC20633]?
Kc cell number, rep 1: 1.54e6; Kc cell number, rep 2: 1.56e6; S2R+ cell number, rep 1: 1.05e6; S2R+ cell number, rep 2: 1.13e6; call: inactive

With CtBP [DRSC16617], how do the results read?
Kc cell number, rep 1: 1.64e6; Kc cell number, rep 2: 1.77e6; S2R+ cell number, rep 1: 1.06e6; S2R+ cell number, rep 2: 1.13e6; call: inactive

Which result is listed for HLH3B [DRSC18669]?
Kc cell number, rep 1: 1.40e6; Kc cell number, rep 2: 1.40e6; S2R+ cell number, rep 1: 9.78e5; S2R+ cell number, rep 2: 1.09e6; call: inactive

4 entries from above, reduced to “Kc cell number, rep 1”:
CG10237 [DRSC02029]: 1.47e6
CG12486 (retired record) [DRSC09888]: 1.20e6
CG13482 [DRSC10024]: 1.55e6
CG30110 [DRSC05686]: 5.53e5
